From publication PMC8947326
These are yes or no findings as the source states them, for the method shown. Binding seen in cells or lysates may run through a third protein. Some binding calls cover weakened binding; strength is not graded here.

The chains behind the UniProt entries cited, without tags or fusion partners.
UniProt P29067: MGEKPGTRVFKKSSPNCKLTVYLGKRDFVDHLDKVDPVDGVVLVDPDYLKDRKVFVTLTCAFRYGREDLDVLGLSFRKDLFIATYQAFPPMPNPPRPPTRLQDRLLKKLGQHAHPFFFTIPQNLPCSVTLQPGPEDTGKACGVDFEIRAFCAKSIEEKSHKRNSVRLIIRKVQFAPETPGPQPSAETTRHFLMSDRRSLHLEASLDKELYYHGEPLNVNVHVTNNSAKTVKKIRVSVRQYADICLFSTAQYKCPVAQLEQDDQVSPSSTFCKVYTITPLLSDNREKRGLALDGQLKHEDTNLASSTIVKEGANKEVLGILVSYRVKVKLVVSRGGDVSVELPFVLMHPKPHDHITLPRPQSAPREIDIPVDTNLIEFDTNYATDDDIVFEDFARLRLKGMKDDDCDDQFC
UniProt P32121: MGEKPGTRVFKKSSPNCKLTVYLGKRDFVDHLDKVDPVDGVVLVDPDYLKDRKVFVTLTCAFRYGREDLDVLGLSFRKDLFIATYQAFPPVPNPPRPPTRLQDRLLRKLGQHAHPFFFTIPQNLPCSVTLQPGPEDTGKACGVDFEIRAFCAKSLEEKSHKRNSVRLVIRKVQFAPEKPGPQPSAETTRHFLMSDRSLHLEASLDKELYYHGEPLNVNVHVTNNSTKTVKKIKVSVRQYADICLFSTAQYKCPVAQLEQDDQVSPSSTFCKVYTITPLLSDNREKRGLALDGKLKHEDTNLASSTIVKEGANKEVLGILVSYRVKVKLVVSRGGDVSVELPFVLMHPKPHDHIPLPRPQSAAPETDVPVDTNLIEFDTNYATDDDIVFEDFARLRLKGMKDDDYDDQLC
UniProt P49407: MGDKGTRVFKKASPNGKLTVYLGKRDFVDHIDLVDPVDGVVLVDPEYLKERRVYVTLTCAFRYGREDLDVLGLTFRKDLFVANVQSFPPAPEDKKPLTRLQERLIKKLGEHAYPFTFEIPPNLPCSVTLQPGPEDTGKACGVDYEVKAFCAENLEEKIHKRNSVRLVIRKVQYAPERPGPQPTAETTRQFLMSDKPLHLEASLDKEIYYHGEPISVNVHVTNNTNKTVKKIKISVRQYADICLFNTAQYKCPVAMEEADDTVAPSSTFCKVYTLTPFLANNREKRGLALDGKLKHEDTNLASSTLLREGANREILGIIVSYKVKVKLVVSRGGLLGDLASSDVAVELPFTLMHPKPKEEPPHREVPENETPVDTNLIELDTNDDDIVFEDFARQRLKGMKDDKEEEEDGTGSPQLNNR

Experiments:
[1] = target: T1, mGPR1-Venus (mouse) (UniProt Q8K087); experiment: FRET or BRET; real-time BRET1 in living HEK293T cells co-expressing β-arrestin fused to RLuc (donor) and receptor fused to Venus (acceptor); basal conditions, before chemerin; 25 °C; 5 µM Enduren; Net BRET
T1 sequence: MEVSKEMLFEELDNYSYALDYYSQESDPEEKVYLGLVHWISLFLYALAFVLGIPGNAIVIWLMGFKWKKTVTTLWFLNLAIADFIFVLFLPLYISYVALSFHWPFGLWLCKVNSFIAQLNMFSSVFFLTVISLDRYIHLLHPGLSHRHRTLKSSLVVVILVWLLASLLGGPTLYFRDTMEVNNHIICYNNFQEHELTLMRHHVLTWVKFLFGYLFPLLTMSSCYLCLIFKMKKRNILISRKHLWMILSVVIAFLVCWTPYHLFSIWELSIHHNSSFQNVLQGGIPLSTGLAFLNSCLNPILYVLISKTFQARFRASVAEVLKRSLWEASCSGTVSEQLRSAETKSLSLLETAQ

[2] = target: T2, hGPR1-Venus (human) (UniProt P46091); experiment: as above
T2 sequence: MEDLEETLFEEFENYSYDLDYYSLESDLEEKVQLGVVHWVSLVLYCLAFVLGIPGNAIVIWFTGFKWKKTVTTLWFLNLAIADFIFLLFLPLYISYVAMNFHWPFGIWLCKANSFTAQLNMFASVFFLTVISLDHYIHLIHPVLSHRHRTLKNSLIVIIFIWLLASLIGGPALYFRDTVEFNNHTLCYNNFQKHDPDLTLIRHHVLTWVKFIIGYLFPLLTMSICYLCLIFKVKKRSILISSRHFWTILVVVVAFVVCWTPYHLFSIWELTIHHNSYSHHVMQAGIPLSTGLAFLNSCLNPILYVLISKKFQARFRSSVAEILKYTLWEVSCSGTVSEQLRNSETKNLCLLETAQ

[3] = target: T1, mGPR1-Venus (mouse); experiment: FRET or BRET; real-time BRET1 in living HEK293T cells co-expressing β-arrestin fused to RLuc (donor) and receptor fused to Venus (acceptor); after stimulation with 100 nM chemerin; 25 °C; 5 µM Enduren; Net BRET
[4] = target: T2, hGPR1-Venus (human); experiment: as above
[5] = target: T1, mGPR1-Venus (mouse); experiment: FRET or BRET; BRET titration in HEK293T cells: constant amount of β-arrestin-RLuc, increasing amounts of receptor fused to Venus; no chemerin; BRETMax by GraphPad Prism
[6] = target: T2, hGPR1-Venus (human); experiment: as above

binding [1] | binding [2] | binding [3] | binding [4] | binding [5] | binding [6] | Substance
binds | binds weakly | binds | binds | – | – | rat β-arrestin 2 (from UniProt P29067 1-410)
binds | – | binds | – | binds | – | β-arrestin2-RLuc (from UniProt P32121 1-409)
binds | binds weakly | binds | binds | binds | binds weakly | β-arrestin1-RLuc (from UniProt P49407 1-418)
